{
  "sequences": {"note": "Amino acid sequences for entries named in this document (tags omitted).", "UniProt P15873": "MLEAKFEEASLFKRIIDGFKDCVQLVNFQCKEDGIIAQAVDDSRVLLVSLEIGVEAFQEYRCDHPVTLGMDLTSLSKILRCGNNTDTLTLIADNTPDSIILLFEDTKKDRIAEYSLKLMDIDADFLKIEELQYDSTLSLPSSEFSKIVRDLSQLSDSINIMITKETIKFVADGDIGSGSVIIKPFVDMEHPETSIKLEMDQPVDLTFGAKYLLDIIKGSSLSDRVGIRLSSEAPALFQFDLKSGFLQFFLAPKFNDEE", "UniProt P61077": "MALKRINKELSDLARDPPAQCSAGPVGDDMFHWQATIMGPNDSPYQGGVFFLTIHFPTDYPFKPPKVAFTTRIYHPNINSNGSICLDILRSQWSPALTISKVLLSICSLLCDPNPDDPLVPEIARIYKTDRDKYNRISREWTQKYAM"},
  "source": "paper PMC5740110",
  "molecular_target": "yeast PCNA (proliferating cell nuclear antigen) (yeast) (UniProt P15873)",
  "test": "cross-linking; small molecule cross-linker BS3 2 mM, 20 μM of each protein, 20 mM Hepes pH 7.5, 150 mM NaCl, room temperature, 1 h; SDS-PAGE and western blot; both purified",
  "note": "No constants are given. Whether binding was seen depends on the method and setting.",
  "data": [
    {"substance": "ubiquitin-conjugating enzyme UBE2D3 (from UniProt P61077 1-147)", "values": [
      {"measurement": "binding", "result": "no binding (tested: 20 μM UBE2D3 and 20 μM yPCNA)"}
    ]}
  ]
}
